Reference: PubChem BioAssay AID493014 (National Center for Advancing Translational Sciences (NCATS), 2011)
Out of some 340,000 compounds screened, about 170 (0.05%) were called active. Inconclusive means that the source gave no clear call. Such entries were picked first, then a sample of the others. Calls come from the whole dose curve; as a rule, active = well fitted inhibition curve with a large enough effect in the signal ratio, with a control signal flat (not every such curve was filed as active); inconclusive = small, poorly fitted or top-dose-only effect, or effect the other way, or a change in a side signal; inactive = flat fitted curve, though single readings scatter; the % refers to the signal ratio. A potency beside an inconclusive call is a rough fit, not a confirmed value.

Assay: qHTS Assay to Find Inhibitors of Chronic Active B-Cell Receptor Signaling;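 for activity change, negative = inhibition: plate controls were basal doxycycline-induced cells for no effect and cells given 10 µM MG132 for full effect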
Conditions: ABC-DLBCL IkBa-CBG/CBR reporter, luminescence ratio (green luciferase fused to IkBa over red control in TMD8 lymphoma cells), 4 h; activity change, negative = inhibition: at 46.1 µM (top of the series)
Method in brief: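 TMD8 human ABC-DLBCL cells with doxycycline-inducible IκBα–green luciferase fusion and unfused red luciferase, in 0.5% FBS medium; compounds up to 46 uM, 4 h at 37C. Green/red luminescence ratio, filter-overlap corrected, fitted to concentration-response curves.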
Potency is the fitted concentration of half-maximal effect.

Compound	activity change, negative = inhibition	Potency
COc1ccc(NC(=O)CSc2nnc(-c3ccc(F)cc3)o2)cn1	inconclusive: -15%	–
Cc1cc(=O)[nH]c(/N=C(\N)Nc2cccc3ccccc23)n1	inactive: -6.51%	–
Cc1ccc(C(=O)CSC2=C(C#N)C(c3ccco3)C3=C(CC(C)(C)CC3=O)N2)cc1 (configuration not stated)	inactive: 0.257%	–
CCOC(=O)c1ccc(N2CCN(c3cc(Cl)ccc3C)CC2)c(NC(=O)Nc2cccc(OC)c2)c1	inactive: -5.66%	–
CCN(CC1COc2ccccc2O1)C(=S)Nc1ccc(F)cc1 (configuration not stated)	inconclusive: -0.699%	–
COc1ccccc1NC(=O)c1oc2ccc(C)cc2c1C	inconclusive: 1.56%	–
CC1=CSC2=NC(=O)/C(=C\c3cccn3-c3ccccc3)C(=N)N12	inconclusive: 11.8%	–
CC(=C\C(=O)O)/C(=C\c1cccc2ccccc12)C(=O)O	–	inconclusive: 11.2 µM [falling, partial curve, poor fit]
CC1CCN(S(=O)(=O)c2ccc3c(c2)c(=O)c(C(=O)NCc2ccccc2Cl)cn3C)CC1	inconclusive: -1.1%	–
CNC(=S)N/N=C1\C(=O)c2cccc3cccc1c23	–	inconclusive: 3.16 µM [falling, partial curve, poor fit]
COc1ccc(NC(=O)c2sc3nc(N4CCCC4)c4c(c3c2N)CC(C)(C)OC4)cc1	inconclusive: 11.3%	–
CCOC(=O)c1ccc(NC(=S)NC2CC(C)(C)NC(C)(C)C2)cc1	inconclusive: -11.1%	–
Cc1cccc(NC(=O)CC2C(=O)NC3CCCCC3N2C(=O)c2ccccc2Cl)c1 (configuration not stated)	inactive: 6.6%	–
CC(=O)/C=C1/C(=O)Nc2ccccc21	–	inconclusive: 35.5 µM [falling, single point]
COc1ccc(CNC(=O)C2(CC3CC(c4ccccc4)=NO3)CCN(C(=O)C3CCCC3)CC2)cc1 (configuration not stated)	–	inconclusive: 1.12 µM [rising, full curve, poor fit]
CCSc1ccccc1C(=O)NCc1ccc(OC)cc1	–	inconclusive: 1.46 µM [falling, partial curve, poor fit]
N#CC1=C(N)N(c2ccccc2)C(c2ccco2)C1(C#N)C#N (configuration not stated)	–	inconclusive: 23.1 µM [falling, partial curve]
COc1ccc(C2=Nn3c(nnc3-c3ccco3)SC2)cc1OC	–	inconclusive: 7.94 µM [falling, partial curve, poor fit]
CCOc1ccc(/C=C/C(=O)NCCc2ccc(OC)c(OC)c2)cc1	inactive: -3.43%	–
CN(C)/C=C1/NC(=S)NC1=O	inconclusive: -7.06%	–
Cc1ccc(NC(=O)C2=CC(c3cccs3)=NS(=O)(=O)N2C)cc1	–	inconclusive: 0.355 µM [rising, full curve, poor fit]
C=CCSc1nc(C)cc(C(=O)OCC)c1C#N	inconclusive: -2.59%	–
Cc1ccc(Nc2nc(-c3ccc(S(=O)(=O)N4CCOCC4)cc3)cs2)cc1Cl	inconclusive: 8.89%	–
COc1ccc(OCCC(=O)OCC(=O)NC(=O)NC2CCCCC2)cc1	–	inconclusive: 12.6 µM [falling, partial curve, poor fit]
O=[N+]([O-])c1cc(Cl)cc(/C=N/Nc2nc3ccccc3s2)c1O	inconclusive: 385%	–
COc1ccc(CNC(=O)Nc2ccc(C)cc2)cc1	inconclusive: -11.6%	–

Compound	activity change, negative = inhibition	Potency
Cc1cccc(NC(=O)c2cccc(NC(=O)Cc3cccs3)c2)c1	inactive: -25.3%	–
CC(C)C(OC(=O)c1nsc(Cl)c1Cl)C(=O)NCC1CCCO1 (configuration not stated)	inactive: 10.7%	–
CCCc1c(O)nc(SCCN(CC)CC)[nH]c1=O	inconclusive: -5.69%	–
COc1cccc(NC(=O)CN(C)C(=O)c2c(C)nn(-c3ccccc3)c2Cl)c1	inconclusive: -7.89%	–
O=C(Nc1ncc2c(n1)-c1ccccc1OC2)c1ccc(Cl)cc1	–	inconclusive: 0.282 µM [falling, full curve, poor fit]
Nc1nc2nc(-c3ccc(Cl)cc3)cc(C(F)(F)F)n2n1	inconclusive: -7.47%	–
O=C(/C=C/c1ccc(Cl)cc1)N1CCN(Cc2ccccc2)CC1	inconclusive: -4.69%	–
O=C(Nc1cc(Cl)c(Cl)cc1Cl)c1cccnc1	inconclusive: 1.3%	–
COc1cccc(CNC(=O)CSc2cc(=O)n(C)c3ccccc23)c1	–	inconclusive: 17.8 µM [falling, single point]
O=C(C1CCN(S(=O)(=O)c2cnc[nH]2)CC1)N1CCN(c2ccc([N+](=O)[O-])cc2)CC1	inactive: -0.635%	–
O=C(Cn1ncc2c(=O)oc3ccccc3c21)N1CCN(c2ccccn2)CC1	inactive: -0.231%	–
COc1cc(C2Nc3ccccc3C(=O)N2c2ccccc2)c(Br)cc1OCC(=O)O (configuration not stated)	inconclusive: 0.106%	–
COc1ccc2cc(-c3ccccc3F)ncc2c1	inconclusive: -20.7%	–
O=S(=O)(Nc1cccc(Cl)c1)c1ccc(-n2cccn2)cc1	inactive: -8.04%	–
COc1ccc(/C=C/C(=O)N2CCC(C(N)=O)CC2)cc1S(=O)(=O)N1CCOCC1	inconclusive: 3.17%	–
CCOC(=O)c1c(C)[nH]c(C(=O)COC(=O)c2cccnc2Cl)c1C	inconclusive: 4.68%	–
CCn1nc(C)c(NC(=O)/C=C/c2ccc(OC)c(COc3ccc(Cl)cc3Br)c2)c1C	inconclusive: -16.6%	–
O=C(Nc1ccc(N2CCN(C(=O)c3ccco3)CC2)cc1)c1ccc([N+](=O)[O-])cc1Cl	inactive: -1.26%	–
Cc1scc(C(=O)N/N=C/c2ccco2)c1C	–	inconclusive: 29.1 µM [falling, single point]
Cc1ccc(CSC2=Nc3ccccc3C3=NC(CCC(=O)NCCc4ccccc4)C(=O)N23)cc1 (configuration not stated)	inactive: -0.507%	–
CCOC(=O)C/C(C)=N/NC(=O)CNc1cccc(Cl)c1C	inactive: -9.42%	–
CCCCOc1ccc(-c2ncc(N)cn2)cc1	inconclusive: 2.48%	–
CC(=O)Nc1ccc(C(=O)Nc2nc(-c3cccnc3)cs2)cc1	inactive: -0.865%	–
CCn1cc(CNC(=O)c2cc([N+](=O)[O-])c(C)c([N+](=O)[O-])c2)cn1	inconclusive: 0.654%	–
O=C(COc1ccccc1[N+](=O)[O-])Nc1cccc(Cl)c1N1CCOCC1	inconclusive: -0.962%	–
CC(=O)c1cc(CN2CCC(n3nccc3NC(=O)c3ccccc3)CC2)cs1	inactive: -6.49%	–

Given with bars between the fields: part of the list above.
Compound | activity change, negative = inhibition | Potency
Cc1cc(=O)[nH]c(/N=C(\N)Nc2cccc3ccccc23)n1 | inactive: -6.51% | –
Cc1ccc(C(=O)CSC2=C(C#N)C(c3ccco3)C3=C(CC(C)(C)CC3=O)N2)cc1 (configuration not stated) | inactive: 0.257% | –
CCOC(=O)c1ccc(N2CCN(c3cc(Cl)ccc3C)CC2)c(NC(=O)Nc2cccc(OC)c2)c1 | inactive: -5.66% | –
CC1CCN(S(=O)(=O)c2ccc3c(c2)c(=O)c(C(=O)NCc2ccccc2Cl)cn3C)CC1 | inconclusive: -1.1% | –
COc1ccc(NC(=O)c2sc3nc(N4CCCC4)c4c(c3c2N)CC(C)(C)OC4)cc1 | inconclusive: 11.3% | –
N#CC1=C(N)N(c2ccccc2)C(c2ccco2)C1(C#N)C#N (configuration not stated) | – | inconclusive: 23.1 µM [falling, partial curve]
Cc1ccc(NC(=O)C2=CC(c3cccs3)=NS(=O)(=O)N2C)cc1 | – | inconclusive: 0.355 µM [rising, full curve, poor fit]
COc1ccc(OCCC(=O)OCC(=O)NC(=O)NC2CCCCC2)cc1 | – | inconclusive: 12.6 µM [falling, partial curve, poor fit]
O=C(/C=C/c1ccc(Cl)cc1)N1CCN(Cc2ccccc2)CC1 | inconclusive: -4.69% | –
COc1cc(C2Nc3ccccc3C(=O)N2c2ccccc2)c(Br)cc1OCC(=O)O (configuration not stated) | inconclusive: 0.106% | –
COc1ccc2cc(-c3ccccc3F)ncc2c1 | inconclusive: -20.7% | –
O=S(=O)(Nc1cccc(Cl)c1)c1ccc(-n2cccn2)cc1 | inactive: -8.04% | –
O=C(Nc1ccc(N2CCN(C(=O)c3ccco3)CC2)cc1)c1ccc([N+](=O)[O-])cc1Cl | inactive: -1.26% | –
CCOC(=O)C/C(C)=N/NC(=O)CNc1cccc(Cl)c1C | inactive: -9.42% | –
CCCCOc1ccc(-c2ncc(N)cn2)cc1 | inconclusive: 2.48% | –
O=C(COc1ccccc1[N+](=O)[O-])Nc1cccc(Cl)c1N1CCOCC1 | inconclusive: -0.962% | –
